Assay results published in US5716935A, “Use of antiotensin II analogs in tissue repair” (University of Southern California, priority 1996, dated 1998).
At least one peptide structure holds a part that was inferred or is arguable (an end, a ring closure or a residue). Some entries repeat one wording, which the source may state once for all of them. No end group written: not given here.

How the values were obtained:
[1] = test system: full thickness dermal wounds; assay: Full thickness dermal wound closure in rats; format: in vivo, Male Sprague Dawley rats; conditions: rat 2×2 cm dermal wounds; 3 μg/wound (analogs 2 and 3 also 10 μg/wound) in 100 μl Hydron solution; area measured days 2, 5, 6, 8, 10
[2] = test system: angiotensin II receptor; conditions: reported in literature; cited from earlier work

Q: With “DRVYVHPF [Analog 1, Asp--Arg--Val--Tyr--Val--His--Pro--Phe]” as the compound, how does the “wound closure relative to vehicle-treated control” value [1] read?
A: substantially accelerated

Q: For CC[C@H](C)[C@H](NC(=O)[C@H](Cc1ccc(O)cc1)NC(=O)[C@@H](NC(=O)[C@H](CCCNC(=N)N)NC(=O)CNC)C(C)C)C(=O)N[C@@H](Cc1c[nH]cn1)C(=O)N1CCC[C@H]1C(=O)N[C@@H](Cc1ccccc1)C(=O)O [Analog 4, Sar-Arg-Val-Tyr-Ile-His-Pro-Phe], which “wound closure relative to vehicle-treated control” value [1] is on record?
A: did not accelerate wound repair

Q: And the “affinity and activity for angiotensin II receptor” value [2]?
A: full affinity and activity

Q: Which “wound closure relative to vehicle-treated control” value [1] does the source give for “APGDRIYVHPF [Analog 3, Ala--Pro--Gly--Asp--Arg--Ile--Tyr--Val--His--Pro--Phe]” here?
A: substantially accelerated

Q: Which “wound closure relative to vehicle-treated control” value [1] does the source give for “NRVYVHPF [Analog 2, Asn--Arg--Val--Tyr--Val--His--Pro--Phe]” here?
A: substantially accelerated
